Laboratory results from patent publication US20120142894A1.
No constants are given. Whether binding was seen depends on the method and setting.

Target: HLA-B*0702 (human)
Test: condition: RA > 10 (peptide tested from 100 µM to 0.1 µM); T2-B7 cells incubated 16 h with peptide, HLA-B*0702 surface expression stained with ME-1 mAb; relative affinity against reference peptide CMV265-274 (R10V)

binding, no binding:
GPRALAETS [MAGE-A A], GPRALIETS [MAGE-A I], GPRALVETS [MAGE-A V]
